This is one part of the list.
Target: T1, OsSMF1 (Oryza sativa, UniProt Q6ZLB0 1-436)
T1 sequence: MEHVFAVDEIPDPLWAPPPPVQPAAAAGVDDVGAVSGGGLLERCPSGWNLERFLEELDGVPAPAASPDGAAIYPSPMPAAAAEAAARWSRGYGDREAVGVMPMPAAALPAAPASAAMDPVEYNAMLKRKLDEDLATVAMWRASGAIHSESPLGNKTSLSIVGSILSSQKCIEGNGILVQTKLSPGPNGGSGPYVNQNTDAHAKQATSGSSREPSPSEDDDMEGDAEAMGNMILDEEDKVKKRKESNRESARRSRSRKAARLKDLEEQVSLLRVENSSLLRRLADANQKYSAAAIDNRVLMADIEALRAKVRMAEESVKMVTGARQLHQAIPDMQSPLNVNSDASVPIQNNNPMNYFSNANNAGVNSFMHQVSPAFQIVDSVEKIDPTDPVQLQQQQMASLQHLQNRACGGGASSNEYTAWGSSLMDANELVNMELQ
Test: protein-binding microarray (RPBM); PBS, 2% BSA, 51.3 ng/ul salmon testes DNA, 50 uM zinc acetate, 200 nM TF, 25 C, 1 h; high values mean tight binding
Details: protein: recombinant; tags: N-terminal polyhistidine and DsRed monomer fusion (pET32a); chain copies: 2; label: CyDye5-dUTP incorporated in the synthesized complementary strand; 3' TTTTT single-stranded linker to array surface; dsDNA, one strand shown
Procedure, shortened: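 Transcription factors, each fused N-terminally to a polyhistidine tag and DsRed, were expressed in E. coli BL21-CodonPlus and purified on Ni–NTA. A custom Agilent array was made double-stranded by primer extension with Cy5-dUTP and blocked with 2% BSA. It was incubated with 200 nM protein in PBS, 2% BSA, salmon testes DNA and 50 µM zinc acetate at 25 °C for 1 h, then washed. The binding signal is per-feature fluorescence intensity (arbitrary units) read on an Axon 4000B scanner.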

Question: How did the binding signal turn out when “TCGAATCTTTTGGTCATAGTGACTGTCAAGTAGTGATCAACGGAGTCACCTAGTGCAG” was run?
Answer: Its binding signal is 3710 fluorescence intensity (a.u.).

Question: For “AGCGTGCCTCAACTTCTCCAACTCCGCGTGGCTGCTCGCCCGGAGTCACCTAGTGCAG”, which binding signal is on record?
Answer: Its binding signal is 4440 fluorescence intensity (a.u.).

Question: For “ATGCCACGTCATCAAGCCAGCCTCTCCTGTCCTCTCCTTTCGGAGTCACCTAGTGCAG”, which binding signal is on record?
Answer: The binding signal was 26400 fluorescence intensity (a.u.).

Question: “GACTAACAAAATCGTTGAAACTTGCGAAGTTTCTTTTGATCGGAGTCACCTAGTGCAG” was tested. Which binding signal did it give?
Answer: Its binding signal is 64700 fluorescence intensity (a.u.).

Question: “AATCAATACAAAGTCTGAAAGCCATTATGGTGGCAGTAATCGGAGTCACCTAGTGCAG” was tested. Which binding signal did it give?
Answer: Its binding signal is 61300 fluorescence intensity (a.u.).

Question: “GTTGCATGGTCCTGTTTTGAATTATTCCACGTATGATAAGCGGAGTCACCTAGTGCAG” was tested. Which binding signal did it give?
Answer: Its binding signal is 7720 fluorescence intensity (a.u.).

Question: For “TACGTAGGTGCCACGTCGGTCAAACCTGGGCTCAATAGTTCGGAGTCACCTAGTGCAG”, which binding signal is on record?
Answer: Its binding signal is 13900 fluorescence intensity (a.u.).

Question: How did the binding signal turn out when “GTGATCTTTCCACATACAGAGAGAGAGAGAGCTTGGGATTCGGAGTCACCTAGTGCAG” was run?
Answer: Its binding signal is 40900 fluorescence intensity (a.u.).

Question: How did the binding signal turn out when “ATGAGAGATAAGTAGATGACACATTCACAGTTGCTATAGTCGGAGTCACCTAGTGCAG” was run?
Answer: Its binding signal is 4040 fluorescence intensity (a.u.).

Question: For “TTTGTAATAGCATTGGATTCCTGGTTGCATGCGCTGGCTGCGGAGTCACCTAGTGCAG”, which binding signal is on record?
Answer: Its binding signal is 3630 fluorescence intensity (a.u.).

Question: Which binding signal does the source give for “AGGCTATCCTTAGGCTGTATTTAGTTCCACGTCAAAATTGCGGAGTCACCTAGTGCAG” here?
Answer: The binding signal was 3190 fluorescence intensity (a.u.).

Question: With “AGGCGGTTTTGGCTGATGTGGCGTCTACGTGGCTTGTTTGCGGAGTCACCTAGTGCAG” as the sequence, how does the binding signal read?
Answer: Its binding signal is 25300 fluorescence intensity (a.u.).

Question: With “GGCGCATGTTTAATCGACAGCTCGGCACGAGCAACAAGATCGGAGTCACCTAGTGCAG” as the sequence, how does the binding signal read?
Answer: The binding signal was 3670 fluorescence intensity (a.u.).

Question: With “CTCCCGCCGTGGCACGCGCGACGTGCCGCGTGCGCACAGGCGGAGTCACCTAGTGCAG” as the sequence, how does the binding signal read?
Answer: The binding signal was 46800 fluorescence intensity (a.u.).

Question: How did the binding signal turn out when “CGGTGGCAGCCCGGCGGCGTGGAGCGCGCTGCTTAGCGCGCGGAGTCACCTAGTGCAG” was run?
Answer: Its binding signal is 53600 fluorescence intensity (a.u.).

Question: For “CTTCAACTCAAATGTCATCCGATGTCTGTTTCGTACCCGGCGGAGTCACCTAGTGCAG”, which binding signal is on record?
Answer: The binding signal was 3850 fluorescence intensity (a.u.).

Question: How did the binding signal turn out when “TGACATTCAGCTTTGAATGAAATATCAGTCATGGAGGGAGCGGAGTCACCTAGTGCAG” was run?
Answer: Its binding signal is 36900 fluorescence intensity (a.u.).

Question: With “GAAGTCCAAGCGCCTGGAACTTGTGTGTCAGTGTGTGAATCGGAGTCACCTAGTGCAG” as the sequence, how does the binding signal read?
Answer: The binding signal was 4010 fluorescence intensity (a.u.).

Question: With “TAATACATGGTCCCACATGTCATACACATATTGTGTCTTGCGGAGTCACCTAGTGCAG” as the sequence, how does the binding signal read?
Answer: Its binding signal is 3280 fluorescence intensity (a.u.).

Question: “AAGAAAAGCATACACCAACGGCTGGCTCTATACTCTGCCACGGAGTCACCTAGTGCAG” was tested. Which binding signal did it give?
Answer: Its binding signal is 3210 fluorescence intensity (a.u.).

Question: Which binding signal does the source give for “GCCTGCAGTTGCTCGATCTACGCATGTACCCAAGCTCCGCCGGAGTCACCTAGTGCAG” here?
Answer: Its binding signal is 3330 fluorescence intensity (a.u.).

Question: For “AGAGAATTATGGAGAGGGGAGGGGAGGGGCAGCAAAAGAGCGGAGTCACCTAGTGCAG”, which binding signal is on record?
Answer: Its binding signal is 4210 fluorescence intensity (a.u.).

Question: How did the binding signal turn out when “GCCCGCGCTTCATCCGGTAACCACCGTCACCAACCGTGCGCGGAGTCACCTAGTGCAG” was run?
Answer: Its binding signal is 5640 fluorescence intensity (a.u.).

Question: For “AGATCAAACCTGCCACGTGAGCACCATGTCAATGCCACATCGGAGTCACCTAGTGCAG”, which binding signal is on record?
Answer: Its binding signal is 18200 fluorescence intensity (a.u.).

Question: Which binding signal does the source give for “CGTCGTGGTGGTGAGGGGTGACGCGAGTCACGCAACTCGCCGGAGTCACCTAGTGCAG” here?
Answer: The binding signal was 6180 fluorescence intensity (a.u.).

Question: Which binding signal does the source give for “GGAGATTGTGTCCTTATCTATAACGACAAGTATTATCAATCGGAGTCACCTAGTGCAG” here?
Answer: The binding signal was 32400 fluorescence intensity (a.u.).

Question: How did the binding signal turn out when “CCCTCCTCTTTCCACTTGTCACCGCCGTTCGCCTTCCCAACGGAGTCACCTAGTGCAG” was run?
Answer: Its binding signal is 3440 fluorescence intensity (a.u.).

Question: How did the binding signal turn out when “TAGAACTGACTCCTATAGCAAGCGACGGAGAAGCTCGACGCGGAGTCACCTAGTGCAG” was run?
Answer: The binding signal was 3780 fluorescence intensity (a.u.).

Question: Which binding signal does the source give for “ACATATTCACAGGGGTGTGAGTGTGATTGTGATGTTGCATCGGAGTCACCTAGTGCAG” here?
Answer: Its binding signal is 3550 fluorescence intensity (a.u.).

Question: Which binding signal does the source give for “CGATACTGCGATGCATCGATATCGTTCGTCAGCTCAAGTACGGAGTCACCTAGTGCAG” here?
Answer: Its binding signal is 3980 fluorescence intensity (a.u.).

Question: With “CCTCCTATATAATCATCAAAAGCTTAGCTTAGCAGTAGGCCGGAGTCACCTAGTGCAG” as the sequence, how does the binding signal read?
Answer: The binding signal was 30000 fluorescence intensity (a.u.).

Question: Which binding signal does the source give for “GGCGGCGGCGGCGGCGCGGCGGCGTTGACGTCGACCGGCGCGGAGTCACCTAGTGCAG” here?
Answer: The binding signal was 3530 fluorescence intensity (a.u.).

Question: How did the binding signal turn out when “ATATTTTGCTTCCAATGCCACATTACCACCACGTAGGACGCGGAGTCACCTAGTGCAG” was run?
Answer: Its binding signal is 8970 fluorescence intensity (a.u.).

Question: “GCTGGTCACATCACAAACACGTACACTCACACCGTTGCCTCGGAGTCACCTAGTGCAG” was tested. Which binding signal did it give?
Answer: Its binding signal is 4570 fluorescence intensity (a.u.).

Question: With “ATTTACAATGTACCATTTCAACACGTGTGAAGCCATAAGACGGAGTCACCTAGTGCAG” as the sequence, how does the binding signal read?
Answer: The binding signal was 4890 fluorescence intensity (a.u.).

Question: “CGTCGCACTGGCACGGTGGAGGACTACGTCAACAGTTTCCCGGAGTCACCTAGTGCAG” was tested. Which binding signal did it give?
Answer: Its binding signal is 4570 fluorescence intensity (a.u.).

Question: With “CAATGCAACTACTAACAACATGACAAGGCCTCCGGAACCGCGGAGTCACCTAGTGCAG” as the sequence, how does the binding signal read?
Answer: Its binding signal is 4000 fluorescence intensity (a.u.).

Question: With “GTCTCAAACATAATCACCCATACTCGCAGGTAGTACATTCCGGAGTCACCTAGTGCAG” as the sequence, how does the binding signal read?
Answer: The binding signal was 3300 fluorescence intensity (a.u.).

Question: “TTCAGTGGTGTGACGCGCCGGTGCGCCACACGTCCACCCCCGGAGTCACCTAGTGCAG” was tested. Which binding signal did it give?
Answer: The binding signal was 4780 fluorescence intensity (a.u.).

Question: For “CTGCGCGCCATCGAGCGCTACCGCGTGACGCTGCTGCCCGCGGAGTCACCTAGTGCAG”, which binding signal is on record?
Answer: Its binding signal is 5150 fluorescence intensity (a.u.).

Question: With “GGTACAAAGGTGAATTATACTTCCTGGCAAGTGGTGGAATCGGAGTCACCTAGTGCAG” as the sequence, how does the binding signal read?
Answer: Its binding signal is 3640 fluorescence intensity (a.u.).

Question: Which binding signal does the source give for “CCCACCGTAATACGTTCGCTATTTTGTCACGGATTCGGCGCGGAGTCACCTAGTGCAG” here?
Answer: Its binding signal is 3760 fluorescence intensity (a.u.).

— paper PMC7819943, “Rice protein-binding microarrays: a tool to detect cis-acting elements near promoter regions in rice”
